In all, about 140,000 compounds went through this assay and about 4,300 (3.1%) were called active. The shares of active, inactive and inconclusive entries below differ from those in the screen.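 Rule for the calls: active = readout at or below -70, meaning at least 70% loss of cells showing the perinucleolar compartment, a nuclear body marking cancer cells; inconclusive = readout between -30 and a set limit; inactive = the rest.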
Test: High Content Assay for Compounds that inhibit the Assembly of the Perinucleolar Compartment;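 note: plate controls were DMSO wells for no effect and camptothecin positive control wells for full effect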
Conditions: PC3M PTB-GFP, PNC prevalence imaging, 16 h; at 10 µM; active compounds read low
Procedure, shortened: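 Read-out is percentage of cells bearing a perinucleolar compartment, from automated 20x imaging of fixed, Hoechst-stained PC3M PTB-GFP cells. Cells were seeded 4 h, then exposed 16 h to compound (23 nl of library stock) in duplicate plates.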

Row | Compound | activity change (PNC), negative = inhibition
1 | O/N=C1/C2C3C(Br)C4C5CC(C1C53)C24 (stereo unspecified) | inactive: 22.5%
2 | COc1ccc(C2(C(=O)N3CCCC3)CCOCC2)cc1OC | inconclusive: -36.2%
3 | O=C(Nc1cccn(Cc2ccccc2)c1=O)NC1CCCCC1 | inactive: 51.9%
4 | N#CCc1nc(CSc2nc3ccccc3o2)cs1 | inconclusive: -54.5%
5 | O=C(CN1CCC(c2nc3ccccc3[nH]2)CC1)NCc1ccc2c(c1)OCO2 | inconclusive: -35.8%
6 | O=C(NCCN1CCOCC1)c1ccc2c(c1)N(Cc1ccccc1)C(=O)CS2 | inactive: 22.5%
7 | O=C(Nc1ccc(-c2nc3ccccc3o2)cc1)c1ccc(N2C(=O)C3C4C=CC(C4)C3C2=O)cc1 (stereo unspecified) | inactive: -17.1%
8 | O=C(NCc1ccc2c(c1)OCO2)C1CCN(S(=O)(=O)c2cccc3nsnc23)CC1 | inconclusive: -38.9%
9 | COc1ccc([N+](=O)[O-])cc1NC(=O)CSc1ccc2ccccc2c1 | inconclusive: -44.5%
10 | COc1ccc(N(C)C2=NS(=O)(=O)c3ccccc32)cc1 | active: -101%
11 | O=C(CCSCCC(=O)NCC1CCCO1)NCC1CCCO1 (stereo unspecified) | inconclusive: -74.7%
12 | CC(=O)N1CC2(CC(=O)OC(C)C)CN(C(C)=O)CC(CC(=O)OC(C)C)(C1)C2=O | inconclusive: -40.5%
13 | COc1cc(CC(=O)OCC(=O)Nc2cccc([N+](=O)[O-])c2)cc(OC)c1OC | inconclusive: -46.4%
14 | C/C(=N\NC(=O)C1CC1)c1ccc(Cl)cc1 | inconclusive: -53%
15 | CCCCN1C(=O)c2ccc(C(=O)Nc3ccc(S(=O)(=O)N(C)C)cc3)cc2C1=O | inactive: -17.6%
16 | CCCc1c(O)nc(SCC(=O)NCCc2ccc(OC)c(OC)c2)[nH]c1=O | inconclusive: -32.5%
17 | CCNc1nc(NCC)n2c(SCC(=O)N(CC)C3CCCCC3)nnc2n1 | inconclusive: -50.4%
18 | CCOC(=O)[C@@H]1CCNC[C@@H]1c1ccccc1 | inconclusive: -43.6%
19 | COc1cc(C2N(c3ccccc3)CCN2c2ccccc2)ccc1OC(C)=O | inconclusive: -56.5%

Given comma-delimited: part of the list above.
Row,Compound,"activity change (PNC), negative = inhibition"
4,N#CCc1nc(CSc2nc3ccccc3o2)cs1,inconclusive: -54.5%
5,O=C(CN1CCC(c2nc3ccccc3[nH]2)CC1)NCc1ccc2c(c1)OCO2,inconclusive: -35.8%
6,O=C(NCCN1CCOCC1)c1ccc2c(c1)N(Cc1ccccc1)C(=O)CS2,inactive: 22.5%

The list goes on:

Row | Compound | activity change (PNC), negative = inhibition
20 | Cc1nnc(NC(=O)C2COc3ccccc3O2)s1 (stereo unspecified) | inactive: 24.1%
21 | COCCCNC(=O)C1CCN(S(=O)(=O)c2c(C)noc2/C=C\c2ccc(OC)cc2)CC1 | active: -109%
22 | COc1cc(C(=O)Nc2ccc3c(c2)C(=O)N(CCC(=O)O)C3=O)cc(OC)c1OC | inconclusive: -47.3%
23 | Cc1ccc2c(CC(=O)NNC(=O)c3ccccc3)coc2c1 | inconclusive: -37.2%
24 | Cc1ccc(OCc2ccc(C(=O)Nc3c(C)nn(Cc4c(F)c(F)c(F)c(F)c4F)c3C)o2)c([N+](=O)[O-])c1 | inactive: -27.5%
25 | C=CCn1cnc2c(NCc3ccccc3)ncnc21 | inconclusive: -34.9%
26 | CC(=O)Nc1sc2c(c1CN1CCN(c3ccc(F)cc3)CC1)CCCC2 | inactive: 4.12%
27 | CCCc1ccc(OCc2ccc(C(=O)O)o2)c(OC)c1 | inconclusive: -65.7%
28 | COc1ccc(S(=O)(=O)NNC(=O)c2csc(-n3nc(C)cc3C(F)(F)F)n2)cc1 | inconclusive: -46.2%
29 | CC1CCCCC1NC(=O)COC(=O)c1ccccc1NC(=O)c1ccco1 (stereo unspecified) | inconclusive: -40.5%
30 | O=C(Nc1c(Cl)cc(Cl)cc1-c1nc2ccccc2s1)c1ccc(Br)o1 | inconclusive: -52.2%
31 | COc1ccc(NC(=O)c2cccs2)cc1NC(=O)c1ccco1 | inconclusive: -54.1%
32 | Cc1cccc(C)c1NC(=O)c1c(-c2ccccc2)noc1C | inconclusive: -35.4%
33 | Cc1ccc(CN2CCc3c(OCc4ccc(F)cc4)cccc3C2=O)cc1 | inactive: -13.8%
34 | CCOc1nc(NCc2ccco2)nc(Nc2ccc(OC)cc2)n1 | inconclusive: -33.6%
35 | CC(C)c1ccc(C(=O)NC(=S)NCc2cccnc2)cc1 | inconclusive: -44.7%
36 | O=C(CN1CCOCC1)Nc1ncc(Cc2ccccc2Cl)s1 | inconclusive: -47.7%
37 | Cc1ccc(C(=O)NC(=S)Nc2cc(-c3nc4ccccc4s3)ccc2C)cc1 | active: -109%
38 | CC(=O)CCc1ccc(OC(=O)c2cccnc2)cc1 | active: -100%

Row | Compound | activity change (PNC), negative = inhibition
39 | CCN(CC)C(=O)CN(c1cc2c(cc1OC)oc1ccccc12)S(=O)(=O)c1ccc(C)cc1 | inactive: -5.47%
40 | C(=N\Nc1nc2ccccc2s1)/c1ccc2c(c1)OCO2 | inconclusive: -34.6%
41 | C=C1C(=O)C=C2CN(C(=O)c3ccccc3)[C@@](Cc3ccc(F)cc3)(C(=O)OC)[C@@H]12 | active: -119%
42 | Cn1nnnc1SCc1ccc(F)cc1 | inconclusive: -71.3%
43 | Cc1ccc(-c2nnn(CC(=O)N3CCN(c4nc5ccccc5s4)CC3)n2)cc1 | inconclusive: -41.3%
44 | CCC(C)C(NC(=O)[C@@H](NC(=O)c1ccccc1F)C(C)C)C(=O)OC (stereo partly specified) | inconclusive: -75.6%
45 | Cc1ccc(NC(=O)C(OC(=O)c2ccc(O)cc2)c2ccccc2)cc1Cl (stereo unspecified) | inconclusive: -66.1%
46 | CC(C)CCn1c(N2CCOCC2)nc2c1c(=O)n(CC(N)=O)c(=O)n2C | inconclusive: -79.4%
47 | CC(=O)c1ccc(-n2c(CCC(=O)O)ccc2-c2cccs2)cc1 | inconclusive: -39.4%
48 | O=S(=O)(c1ccc(Cl)s1)N1CCN(C/C=C/c2ccccc2)CC1 | inconclusive: -31.5%
49 | CCn1c(SC)nnc1-c1c[nH]c2ccccc12 | inconclusive: -59.3%
50 | CCn1c(SCC(=O)N2CC(=O)Nc3ccccc32)nnc1-c1ccoc1C | inconclusive: -34.2%
51 | FC(F)(F)c1nnc2sc(-c3ccncc3)nn12 | inactive: 13.2%
52 | Cn1c(=O)c2c(nc(NCc3ccco3)n2Cc2ccccc2Cl)n(C)c1=O | inconclusive: -50.5%
53 | O=C(NC(=S)Nc1ccc2c(c1)OCO2)c1ccccc1 | inconclusive: -36.1%
54 | O=C1C=C(NC2CC2)C2(CCCCC2)O1 | inconclusive: -40.9%
55 | Cn1c(SCc2ccccc2)nnc1-c1c[nH]c2ccccc12 | inconclusive: -58.4%
56 | Cc1nn(Cc2ccccc2Cl)c(C)c1NC(=O)Cn1nc([N+](=O)[O-])c(Cl)c1C | inactive: 29.3%
